# From PubChem BioAssay AID1487 (National Center for Advancing Translational Sciences (NCATS), 2009)
# Several values for one entry are separate records, joined by “and”; a condition that tells them apart may be missing. Equal entries are not always repeated. This is one part of the list. Shown are side measurements of this screen, not its main read-out; they come without a call. Most of these compounds were active or inconclusive in the main read-out, so they are no random draw. Words in brackets tell the shape of the fitted curve; partial curves, single points and poor fits give uncertain potencies.
# Experiment: qHTS Assay for Modulators of Lamin A Splicing
# Settings: HeLa LMNA splicing GFP/RFP minigene ratio, 48 h
# Outline: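 Read-out is the ratio of GFP to DsRed2 object intensity, acquired by 488 nm laser-scanning cytometry on HeLa lamin A-EGFP minigene reporter cells. Compound incubation 48 hrs at 37 °C in Opti-MEM with 2% FBS; DMSO 0.5% final.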
# [1] = measured here: GFP splicing reporter channel
# [2] = measured here: RFP viability control channel
SMILES,AC50 [1],AC50 [2]
C[C@H]1CC[C@@H]2[C@@H](C)[C@H]3[C@H](C[C@H]4[C@@H]5CC=C6CC(O[C@@H]7O[C@H](CO)[C@H](O)[C@H](O[C@@H]8O[C@H](CO)[C@@H](O)[C@H](O)[C@H]8O)[C@H]7O[C@H]7O[C@@H](C)[C@H](O)[C@@H](O)[C@H]7O)CC[C@]6(C)[C@H]5CC[C@]34C)N2C1 (stereo not given in full),"14.1 µM [falling, partial curve]","15.8 µM [falling, partial curve]"
O=C1C=C2C=C[C@H]3C[C@]2(O1)[C@@H]1CCCCN13,–,"25.1 µM [rising, single point]"
O=[N+]([O-])c1ccc(NCc2ccccc2)c2nonc12,"10 µM [rising, partial curve]",–
Cc1ccc(OCC(=O)N2CCN(Cc3ccc4c(c3)OCO4)CC2)cc1C,"2.82 µM [falling, partial curve, poor fit]","5.01 µM [falling, partial curve]"
COP(=S)(OC)SCn1nnc2ccccc2c1=O,"31.6 µM [falling, single point]","35.5 µM [falling, single point]"
COc1ccc(OC)c(N2C(=O)NC(=O)/C(=C/c3ccc([N+](=O)[O-])s3)C2=O)c1,–,"5.62 µM [rising, single point]"
CC(C)c1c(CN(C)[C@@H](C)Cc2ccccc2)n(C)n(-c2ccccc2)c1=O,"7.08 µM [falling, partial curve, poor fit]","8.91 µM [falling, single point]"
CSc1ccccc1C(=O)C1CCCN(Cc2ccncc2)C1 (stereo not given),–,"0.141 µM [falling, full curve, poor fit]"
CC(C)N1CCN(Cc2cccc3c2OCO3)CC1CCO (stereo not given),"1.12 µM [falling, full curve]","0.447 µM [falling, full curve, poor fit]"
Cc1nnc(NC(=O)c2cccn(Cc3cccc([N+](=O)[O-])c3)c2=O)s1,"0.562 µM [falling, full curve, poor fit]","0.562 µM [falling, full curve]"
CCn1c(=O)cc(SCC(=O)N2CCC3(CC2)OCCO3)c2ccccc21,–,"28.2 µM [rising, single point]"
Cc1ccc(Cn2nnnc2CN2CCC(n3nnc4cc(C)ccc43)CC2)cc1,–,"14.1 µM [rising, single point]"
C[C@H]1C[C@@H](C)C(=O)[C@@H]([C@H](O)CC2CC(=O)NC(=O)C2)C1,"1 µM [falling, partial curve]","1 µM [falling, partial curve]"
Cc1c(C(=O)NCCC2=CCCCC2)oc2ccc(S(=O)(=O)N3CCC4(CC3)OCCO4)cc12,"11.2 µM [rising, single point]","12.6 µM [rising, partial curve]"
COc1cc2c(C(=O)N3CCN(C)CC3)c(C)n(C)c2cc1Br,–,"0.00447 µM [falling, full curve, poor fit]"
NC(N)=NC(=O)c1nc(Cl)c(N)nc1N,"1.41 µM [falling, partial curve, poor fit] and 31.6 nM [falling, full curve] and 4.47 µM [rising, full curve]",–
S=C(S)N1CCCC1,"1 µM [falling, full curve]","0.631 µM [falling, full curve]"
O=C(Nc1cccc(Cl)c1)c1cnc2sc(N3CCCC3)nn2c1=O,–,"8.91 µM [rising, partial curve]"
O=C(O)c1ccccc1-c1c2cc(Br)c(=O)cc-2oc2[c]([Hg])c(O)c(Br)cc12,"2.51 µM [falling, full curve]","2.82 µM [falling, full curve]"
Cc1noc(C(=O)Nc2sc3c(c2C#N)CCC3)c1Cl,–,"7.94 µM [rising, partial curve]"
Cc1cc(OC(=O)c2ccco2)c2c3c(c(=O)oc2c1)CCCC3,–,"3.98 µM [rising, full curve, poor fit]"
CN1C(=O)C(=Cc2ccccc2OCc2ccccc2Cl)C(=O)N(C)C1=O,–,"6.31 µM [rising, partial curve]"
CC[C@@H]1C(=O)OC[C@@H]1Cc1cncn1C,"15.8 µM [rising, partial curve, poor fit] and 5.01 nM [falling, full curve, poor fit] and 35.5 µM [rising, single point]","5.01 nM [falling, full curve, poor fit] and 35.5 µM [rising, single point]"
N[C@@H](Cn1oc(=O)[nH]c1=O)C(=O)O,"3.16 µM [rising, single point]",–
COc1cccc(C2CC3C(=O)C=CC2N3Cc2ccccc2)c1 (stereo not given),"0.0891 µM [rising, full curve, poor fit]","0.0891 µM [rising, full curve, poor fit]"

SMILES,AC50 [1],AC50 [2]
CNC1=CN(O)C(c2ccccc2)=c2cc(Cl)ccc2=N1,"35.5 µM [falling, single point]","15.8 µM [falling, single point]"
Cc1ccc(-n2c(O)c(/C=N/c3ncc(Br)cc3Br)c(=O)[nH]c2=O)cc1,"1.78 µM [falling, partial curve]",–
COC(C)(C)CCCC(C)C/C=C/C(C)=C/C(=O)OC(C)C (stereo not given),"10 µM [falling, single point]","35.5 µM [falling, single point]"
COc1ccc(NC(=O)c2ccc(COCC(F)(F)C(F)F)cc2)cc1,–,"35.5 µM [rising, single point]"
O=C(Cc1ccc(Br)cc1)N1CCN(Cc2ccccc2)CC1,–,"3.55 µM [rising, single point]"
Cn1c(=O)c2c(ncn2CC(=O)Nc2nc(-c3ccccc3Cl)cs2)n(C)c1=O,–,"12.6 µM [rising, partial curve]"
CCC12CN3CCN(CC(C3)/C1=N\O)C2,–,"35.5 µM [falling, partial curve, poor fit]"
COc1cc(/C=C(/C)[N+](=O)[O-])ccc1OCc1ccccc1Cl,"28.2 µM [falling, single point]","3.98 µM [falling, full curve]"
CC(C)CCn1c(=O)c(C(=O)Nc2ccccc2S(N)(=O)=O)c(O)c2ccccc21,"10 µM [rising, partial curve]","7.94 µM [rising, partial curve]"
COc1c2c(c(CC=C(C)C)c3oc(=O)c(-c4ccc(O)cc4)c(O)c13)OC(C)(C)C=C2,"22.4 µM [rising, single point]",–
CCCN(CCC)[C@@H]1CCc2ccc(O)cc2C1,"5.62 µM [falling, partial curve, poor fit]","6.31 µM [falling, partial curve, poor fit]"
[O]=[Cd],"12.6 µM [rising, single point]",–
Clc1cnc(Oc2ccc(Oc3ncc(Cl)cc3Cl)cc2)c(Cl)c1,–,"4.47 µM [falling, partial curve, poor fit]"
CNCCc1ccc(O)c(O)c1,"1.26 µM [falling, full curve]","12.6 µM [falling, partial curve, poor fit]"
COC1C(O)C(C)O[C@@H](OC2CC[C@@]3(C)C4CC[C@]5(C)C(C6=CC(=O)OC6)CC[C@@]5(O)C4CC[C@@H]3C2)C1O (stereo not given in full),"0.1 µM [falling, full curve]","0.0708 µM [falling, full curve]"
C=C1CC2C(CC[C@]3(C)C(=O)CCC23)[C@]2(C)C=CC(=O)C=C12 (stereo not given in full),"0.00398 µM [falling, full curve, poor fit]","14.1 µM [rising, single point]"
CCOC(=O)C(=CNc1ccc(C(O)(C(=O)OCC)C(F)(F)F)cc1C)C(=O)OCC (stereo not given),"15.8 µM [rising, single point]","14.1 µM [rising, single point]"
O=C(Cn1ncc2c3ccccc3n(Cc3cccc(Cl)c3)c2c1=O)N1CCC2(CC1)OCCO2,–,"12.6 µM [rising, partial curve]"
O=c1cccc2n1CC1CC2CN(Cc2c(F)cccc2Cl)C1 (stereo not given),–,"6.31 µM [falling, single point]"
COc1ccc2c3c1OC1C[C@@H](O)C=C[C@@]31CCN(C)C2 (stereo not given in full),"0.794 µM [falling, full curve]","1.58 µM [falling, single point]"
O=C(COc1ccc(Cl)cc1Cl)N1CCN(C/C=C/c2ccccc2)CC1,"20 µM [rising, partial curve]","17.8 µM [rising, single point]"
CSc1nn(-c2ccc(C(=O)OCC(=O)NC(=O)NC(C)C)cc2)c(=S)s1,–,"17.8 µM [rising, partial curve]"
O=C(CCn1c(=O)oc2ccccc21)N1CCN(C(c2ccccc2)c2ccccc2)CC1,"20 µM [rising, single point]","35.5 µM [rising, single point]"
CCC(C)C(=O)c1c(O)c(C)c2oc3c(C)c(O)c(C(=O)C(C)CC)c(O)c3c2c1O (stereo not given),"7.08 µM [falling, partial curve, poor fit]","1.41 µM [rising, full curve, poor fit]"
O=C(c1ccc2c3c(cccc13)CC2)C1CCCN(Cc2ncc[nH]2)C1 (stereo not given),–,"0.0224 µM [falling, full curve]"

# Part of the list above in order of molar mass, smallest number first.
SMILES,AC50 [1],AC50 [2]
[O]=[Cd],"12.6 µM [rising, single point]",–
CC[C@@H]1C(=O)OC[C@@H]1Cc1cncn1C,"15.8 µM [rising, partial curve, poor fit] and 5.01 nM [falling, full curve, poor fit] and 35.5 µM [rising, single point]","5.01 nM [falling, full curve, poor fit] and 35.5 µM [rising, single point]"
COc1cccc(C2CC3C(=O)C=CC2N3Cc2ccccc2)c1 (stereo not given),"0.0891 µM [rising, full curve, poor fit]","0.0891 µM [rising, full curve, poor fit]"
Cc1nnc(NC(=O)c2cccn(Cc3cccc([N+](=O)[O-])c3)c2=O)s1,"0.562 µM [falling, full curve, poor fit]","0.562 µM [falling, full curve]"
O=C(Cc1ccc(Br)cc1)N1CCN(Cc2ccccc2)CC1,–,"3.55 µM [rising, single point]"
O=C(Nc1cccc(Cl)c1)c1cnc2sc(N3CCCC3)nn2c1=O,–,"8.91 µM [rising, partial curve]"
CCC(C)C(=O)c1c(O)c(C)c2oc3c(C)c(O)c(C(=O)C(C)CC)c(O)c3c2c1O (stereo not given),"7.08 µM [falling, partial curve, poor fit]","1.41 µM [rising, full curve, poor fit]"
CC(C)CCn1c(=O)c(C(=O)Nc2ccccc2S(N)(=O)=O)c(O)c2ccccc21,"10 µM [rising, partial curve]","7.94 µM [rising, partial curve]"
Cc1c(C(=O)NCCC2=CCCCC2)oc2ccc(S(=O)(=O)N3CCC4(CC3)OCCO4)cc12,"11.2 µM [rising, single point]","12.6 µM [rising, partial curve]"
C[C@H]1CC[C@@H]2[C@@H](C)[C@H]3[C@H](C[C@H]4[C@@H]5CC=C6CC(O[C@@H]7O[C@H](CO)[C@H](O)[C@H](O[C@@H]8O[C@H](CO)[C@@H](O)[C@H](O)[C@H]8O)[C@H]7O[C@H]7O[C@@H](C)[C@H](O)[C@@H](O)[C@H]7O)CC[C@]6(C)[C@H]5CC[C@]34C)N2C1 (stereo not given in full),"14.1 µM [falling, partial curve]","15.8 µM [falling, partial curve]"
